Measured values taken from PMC11850942.
Read-outs that look alike come from different tables or passages of the source. These are yes or no findings as the source states them, for the method shown. In cells and extracts the contact can be indirect. Here binding means that the protein was enriched with, or labelled near, the bait; the list need not be complete. Each block holds one molecule with its values, some of them ahead of it.

The chains behind the UniProt entries cited, without tags or fusion partners.
UniProt Q04206: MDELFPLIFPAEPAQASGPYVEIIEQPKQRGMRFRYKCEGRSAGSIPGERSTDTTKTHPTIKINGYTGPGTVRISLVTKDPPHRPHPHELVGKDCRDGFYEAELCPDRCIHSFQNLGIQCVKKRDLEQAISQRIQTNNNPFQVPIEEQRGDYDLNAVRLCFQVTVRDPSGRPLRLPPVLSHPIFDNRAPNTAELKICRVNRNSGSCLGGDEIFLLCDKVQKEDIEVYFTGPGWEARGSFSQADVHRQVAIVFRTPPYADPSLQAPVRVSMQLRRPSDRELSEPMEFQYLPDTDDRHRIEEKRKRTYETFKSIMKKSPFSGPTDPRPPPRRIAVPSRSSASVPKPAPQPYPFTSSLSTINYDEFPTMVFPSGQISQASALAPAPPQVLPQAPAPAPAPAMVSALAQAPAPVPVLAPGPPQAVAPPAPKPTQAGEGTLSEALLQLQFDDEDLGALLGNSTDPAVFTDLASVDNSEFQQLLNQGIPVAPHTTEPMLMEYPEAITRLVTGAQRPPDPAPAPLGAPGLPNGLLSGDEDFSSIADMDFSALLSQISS
UniProt Q92993: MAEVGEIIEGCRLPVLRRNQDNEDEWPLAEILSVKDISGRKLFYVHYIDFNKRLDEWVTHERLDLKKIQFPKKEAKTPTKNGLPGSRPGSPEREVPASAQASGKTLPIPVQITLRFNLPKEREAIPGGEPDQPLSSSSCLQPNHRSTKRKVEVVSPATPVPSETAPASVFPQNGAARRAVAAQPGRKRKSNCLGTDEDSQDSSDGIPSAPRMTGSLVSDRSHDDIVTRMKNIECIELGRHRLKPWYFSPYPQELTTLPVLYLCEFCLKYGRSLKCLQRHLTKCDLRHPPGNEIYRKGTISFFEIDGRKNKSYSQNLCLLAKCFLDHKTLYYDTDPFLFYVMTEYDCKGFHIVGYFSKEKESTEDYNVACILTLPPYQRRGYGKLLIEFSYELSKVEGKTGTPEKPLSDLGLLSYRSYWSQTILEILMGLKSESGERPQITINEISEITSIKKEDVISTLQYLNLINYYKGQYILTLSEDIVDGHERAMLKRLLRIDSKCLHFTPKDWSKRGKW
UniProt P05412: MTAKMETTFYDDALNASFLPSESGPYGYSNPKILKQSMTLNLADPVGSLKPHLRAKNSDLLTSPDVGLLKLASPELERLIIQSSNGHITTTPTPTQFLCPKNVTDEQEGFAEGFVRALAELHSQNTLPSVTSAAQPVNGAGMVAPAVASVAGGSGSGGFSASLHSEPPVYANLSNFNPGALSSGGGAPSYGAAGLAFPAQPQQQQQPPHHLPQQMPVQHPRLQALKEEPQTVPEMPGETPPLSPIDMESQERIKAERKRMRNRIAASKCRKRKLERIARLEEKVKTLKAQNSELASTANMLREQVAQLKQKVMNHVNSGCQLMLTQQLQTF
UniProt Q92769: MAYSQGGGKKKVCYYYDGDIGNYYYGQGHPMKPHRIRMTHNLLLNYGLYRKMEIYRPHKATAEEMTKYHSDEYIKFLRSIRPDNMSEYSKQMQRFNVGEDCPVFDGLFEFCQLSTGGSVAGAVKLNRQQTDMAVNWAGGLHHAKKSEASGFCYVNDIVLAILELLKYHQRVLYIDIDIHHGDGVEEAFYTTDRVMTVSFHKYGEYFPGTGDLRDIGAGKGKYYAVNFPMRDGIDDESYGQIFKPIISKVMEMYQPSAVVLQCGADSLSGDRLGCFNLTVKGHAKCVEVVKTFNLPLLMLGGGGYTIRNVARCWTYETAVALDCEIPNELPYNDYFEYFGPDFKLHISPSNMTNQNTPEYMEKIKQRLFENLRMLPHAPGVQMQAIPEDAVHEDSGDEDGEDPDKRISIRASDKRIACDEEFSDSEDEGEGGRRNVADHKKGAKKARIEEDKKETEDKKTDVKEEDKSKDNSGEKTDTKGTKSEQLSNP
UniProt O15156: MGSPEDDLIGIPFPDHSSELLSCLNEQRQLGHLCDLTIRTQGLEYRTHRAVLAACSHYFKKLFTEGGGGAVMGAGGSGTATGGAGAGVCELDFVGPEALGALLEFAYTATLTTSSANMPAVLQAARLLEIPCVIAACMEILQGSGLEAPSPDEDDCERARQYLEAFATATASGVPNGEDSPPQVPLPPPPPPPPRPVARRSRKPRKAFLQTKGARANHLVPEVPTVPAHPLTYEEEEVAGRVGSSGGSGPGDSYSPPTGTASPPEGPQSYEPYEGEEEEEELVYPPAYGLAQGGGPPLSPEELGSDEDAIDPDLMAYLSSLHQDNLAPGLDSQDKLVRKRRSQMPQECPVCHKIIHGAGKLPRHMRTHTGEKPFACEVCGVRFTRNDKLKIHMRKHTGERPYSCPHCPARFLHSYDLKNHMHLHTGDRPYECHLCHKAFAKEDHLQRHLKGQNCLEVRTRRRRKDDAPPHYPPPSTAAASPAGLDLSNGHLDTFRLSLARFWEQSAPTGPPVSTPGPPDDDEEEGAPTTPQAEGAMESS
UniProt Q13547: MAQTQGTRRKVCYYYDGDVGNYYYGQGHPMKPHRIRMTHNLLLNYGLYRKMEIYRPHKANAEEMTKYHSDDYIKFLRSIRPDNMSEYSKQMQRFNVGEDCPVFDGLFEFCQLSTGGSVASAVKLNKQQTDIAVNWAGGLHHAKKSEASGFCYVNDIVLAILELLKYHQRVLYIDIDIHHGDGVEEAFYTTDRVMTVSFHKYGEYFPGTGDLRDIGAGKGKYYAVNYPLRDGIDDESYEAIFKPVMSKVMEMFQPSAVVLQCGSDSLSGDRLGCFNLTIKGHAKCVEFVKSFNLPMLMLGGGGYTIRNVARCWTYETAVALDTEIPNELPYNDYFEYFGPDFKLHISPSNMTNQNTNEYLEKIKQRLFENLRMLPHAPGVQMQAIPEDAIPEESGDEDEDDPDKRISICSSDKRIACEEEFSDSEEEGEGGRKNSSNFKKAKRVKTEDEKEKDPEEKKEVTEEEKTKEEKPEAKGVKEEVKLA
UniProt O95365: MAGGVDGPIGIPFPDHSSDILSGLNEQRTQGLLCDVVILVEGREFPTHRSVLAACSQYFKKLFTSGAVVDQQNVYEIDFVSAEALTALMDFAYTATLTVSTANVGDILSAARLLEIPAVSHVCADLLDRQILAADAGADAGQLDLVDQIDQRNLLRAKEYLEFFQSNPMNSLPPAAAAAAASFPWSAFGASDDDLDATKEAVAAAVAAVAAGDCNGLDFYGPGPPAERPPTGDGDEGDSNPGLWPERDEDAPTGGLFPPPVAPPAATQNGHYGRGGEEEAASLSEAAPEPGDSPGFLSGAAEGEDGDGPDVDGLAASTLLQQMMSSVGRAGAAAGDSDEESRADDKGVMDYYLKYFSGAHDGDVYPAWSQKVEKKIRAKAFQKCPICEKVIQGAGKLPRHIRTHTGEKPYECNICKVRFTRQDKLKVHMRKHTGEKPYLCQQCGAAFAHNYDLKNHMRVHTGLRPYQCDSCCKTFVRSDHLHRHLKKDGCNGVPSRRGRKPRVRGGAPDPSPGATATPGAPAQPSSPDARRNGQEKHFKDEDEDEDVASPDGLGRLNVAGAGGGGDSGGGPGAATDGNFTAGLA
UniProt Q9BTK6: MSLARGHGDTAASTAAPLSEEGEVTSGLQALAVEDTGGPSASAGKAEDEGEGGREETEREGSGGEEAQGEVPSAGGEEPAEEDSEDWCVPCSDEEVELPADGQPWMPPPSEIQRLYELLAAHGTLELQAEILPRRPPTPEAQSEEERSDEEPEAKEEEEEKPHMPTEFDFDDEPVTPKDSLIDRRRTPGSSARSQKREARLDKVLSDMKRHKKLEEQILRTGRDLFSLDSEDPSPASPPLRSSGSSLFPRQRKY
UniProt Q14686: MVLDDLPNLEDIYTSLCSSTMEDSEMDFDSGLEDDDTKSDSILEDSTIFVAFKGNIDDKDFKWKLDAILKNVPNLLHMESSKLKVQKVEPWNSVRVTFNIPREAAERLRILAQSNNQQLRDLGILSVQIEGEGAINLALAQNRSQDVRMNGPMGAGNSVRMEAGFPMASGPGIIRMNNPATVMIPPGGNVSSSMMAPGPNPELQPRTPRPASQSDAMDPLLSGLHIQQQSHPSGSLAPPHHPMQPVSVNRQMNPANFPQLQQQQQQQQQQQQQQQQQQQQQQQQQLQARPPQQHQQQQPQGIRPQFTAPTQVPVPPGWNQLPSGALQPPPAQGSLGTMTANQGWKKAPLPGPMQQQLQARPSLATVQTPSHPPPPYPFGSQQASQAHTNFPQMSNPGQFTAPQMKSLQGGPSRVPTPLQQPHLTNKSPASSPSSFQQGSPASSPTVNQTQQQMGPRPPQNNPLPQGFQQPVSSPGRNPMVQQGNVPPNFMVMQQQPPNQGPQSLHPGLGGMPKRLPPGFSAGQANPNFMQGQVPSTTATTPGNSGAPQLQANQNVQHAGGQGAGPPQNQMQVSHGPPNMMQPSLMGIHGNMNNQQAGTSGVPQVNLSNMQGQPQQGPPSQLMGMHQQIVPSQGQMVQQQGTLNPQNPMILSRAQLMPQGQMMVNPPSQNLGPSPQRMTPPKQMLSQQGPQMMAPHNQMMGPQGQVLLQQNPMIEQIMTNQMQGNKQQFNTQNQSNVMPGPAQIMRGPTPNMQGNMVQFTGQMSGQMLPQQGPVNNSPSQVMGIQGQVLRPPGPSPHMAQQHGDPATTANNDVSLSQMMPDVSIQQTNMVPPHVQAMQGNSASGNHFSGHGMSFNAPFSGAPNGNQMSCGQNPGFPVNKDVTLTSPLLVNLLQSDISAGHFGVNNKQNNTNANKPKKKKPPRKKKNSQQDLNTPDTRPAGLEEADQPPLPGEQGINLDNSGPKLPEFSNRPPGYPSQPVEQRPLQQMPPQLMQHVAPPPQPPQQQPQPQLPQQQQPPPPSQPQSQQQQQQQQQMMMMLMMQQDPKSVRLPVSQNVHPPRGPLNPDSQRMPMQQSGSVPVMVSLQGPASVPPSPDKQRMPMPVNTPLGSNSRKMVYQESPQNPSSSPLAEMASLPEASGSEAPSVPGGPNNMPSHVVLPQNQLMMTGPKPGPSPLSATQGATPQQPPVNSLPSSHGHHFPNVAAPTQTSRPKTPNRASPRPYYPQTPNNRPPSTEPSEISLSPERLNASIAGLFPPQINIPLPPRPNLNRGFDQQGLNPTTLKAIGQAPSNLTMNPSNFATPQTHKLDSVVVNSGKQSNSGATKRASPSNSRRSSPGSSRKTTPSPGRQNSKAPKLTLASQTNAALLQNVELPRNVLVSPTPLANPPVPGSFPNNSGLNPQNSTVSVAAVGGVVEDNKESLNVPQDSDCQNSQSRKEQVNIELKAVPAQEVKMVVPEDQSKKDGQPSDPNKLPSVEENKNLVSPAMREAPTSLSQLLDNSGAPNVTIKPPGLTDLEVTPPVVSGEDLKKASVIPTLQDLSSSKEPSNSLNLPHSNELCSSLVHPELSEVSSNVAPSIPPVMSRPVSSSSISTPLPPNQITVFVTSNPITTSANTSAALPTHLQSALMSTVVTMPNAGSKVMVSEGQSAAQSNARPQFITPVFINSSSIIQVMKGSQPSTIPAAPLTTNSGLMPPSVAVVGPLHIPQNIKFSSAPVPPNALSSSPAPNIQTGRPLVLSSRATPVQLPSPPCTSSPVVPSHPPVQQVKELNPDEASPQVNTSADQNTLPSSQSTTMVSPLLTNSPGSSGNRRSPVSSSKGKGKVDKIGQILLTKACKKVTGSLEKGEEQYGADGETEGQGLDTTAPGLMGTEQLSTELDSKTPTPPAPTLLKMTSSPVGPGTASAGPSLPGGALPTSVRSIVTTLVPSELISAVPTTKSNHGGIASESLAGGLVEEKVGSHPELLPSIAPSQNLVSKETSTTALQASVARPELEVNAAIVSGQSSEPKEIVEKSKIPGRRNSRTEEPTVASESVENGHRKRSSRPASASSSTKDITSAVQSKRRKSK
UniProt O75030: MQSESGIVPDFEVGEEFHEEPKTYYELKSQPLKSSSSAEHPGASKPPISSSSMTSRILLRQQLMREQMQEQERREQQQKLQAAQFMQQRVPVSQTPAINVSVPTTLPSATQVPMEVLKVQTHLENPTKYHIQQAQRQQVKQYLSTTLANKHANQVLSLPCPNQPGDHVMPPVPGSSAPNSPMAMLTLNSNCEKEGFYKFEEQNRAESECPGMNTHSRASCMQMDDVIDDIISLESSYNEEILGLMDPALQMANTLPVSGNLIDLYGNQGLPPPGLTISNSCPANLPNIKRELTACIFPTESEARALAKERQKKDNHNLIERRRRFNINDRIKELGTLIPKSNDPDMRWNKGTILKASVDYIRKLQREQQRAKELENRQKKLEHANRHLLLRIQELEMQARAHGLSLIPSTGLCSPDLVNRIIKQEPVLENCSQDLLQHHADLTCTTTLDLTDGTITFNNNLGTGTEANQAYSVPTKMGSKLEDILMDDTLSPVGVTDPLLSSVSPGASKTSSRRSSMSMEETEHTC

How the values were obtained:
[1] = molecular target: p65(wt)-HA-miniTurbo (human) (UniProt Q04206)
[2] = molecular target: p65(wt)-HA-miniTurbo (human) (UniProt Q04206); remark: listed apart in the source
[3] = molecular target: p65(wt)-HA-miniTurbo (human) (UniProt Q04206); remark: listed apart in the source
[4] = molecular target: p65(wt)-HA-miniTurbo (human) (UniProt Q04206); remark: listed apart in the source
[5] = molecular target: p65(wt)-HA-miniTurbo (human) (UniProt Q04206); remark: listed apart in the source
[6] = molecular target: p65(wt)-HA-miniTurbo (human) (UniProt Q04206); remark: listed apart in the source
[7] = molecular target: p65(wt)-HA-miniTurbo (human) (UniProt Q04206); remark: listed apart in the source
[8] = molecular target: p65(wt)-HA-miniTurbo (human) (UniProt Q04206); remark: listed apart in the source

Molecule: PAXIP1 (from UniProt Q6ZW49 1-1069)
binding [1]: binds

Molecule: TIP60 (KAT5) (from UniProt Q92993 1-513)
binding [3]: binds

Molecule: c-JUN (from UniProt P05412 1-331)
binding [4]: binds

Molecule: HDAC2 (from UniProt Q92769 1-488)
binding [3]: binds

B1: p52 (NFKB2) (protein, UniProt Q00653 1-454)
chain: MESCYNPGLDGIIEYDDFKLNSSIVEPKEPAPETADGPYLVIVEQPKQRGFRFRYGCEGPSHGGLPGASSEKGRKTYPTVKICNYEGPAKIEVDLVTHSDPPRAHAHSLVGKQCSELGICAVSVGPKDMTAQFNNLGVLHVTKKNMMGTMIQKLQRQRLRSRPQGLTEAEQRELEQEAKELKKVMDLSIVRLRFSAFLRASDGSFSLPLKPVISQPIHDSKSPGASNLKISRMDKTAGSVRGGDEVYLLCDKVQKDDIEVRFYEDDENGWQAFGDFSPTDVHKQYAIVFRTPPYHKMKIERPVTVFLQLKRKRGGDVSDSKQFTYYPLVEDKEEVQRKRRKALPTFSQPFGGGSHMGGGSGGAAGGYGGAGGGGSLGFFPSSLAYSPYQSGAGPMGCYPGGGGGAQMAATVPSRDSGEEAAEPSAPSRTPQCEPQAPEMLQRAREYNARLFGLA
binding [6]: binds

B2: S100A9 (protein, UniProt P06702 1-114)
chain: MTCKMSQLERNIETIINTFHQYSVKLGHPDTLNQGEFKELVRKDLQNFLKKENKNEKVIEHIMEDLDTNADKQLSFEEFIMLMARLTWASHEKMHEGDEGPGHHHKPGLGEGTP
binding [7]: binds

B4: GLIS3 (protein, UniProt Q8NEA6 1-775)
chain: MMVQRLGLISPPASQVSTACNQISPSLQRAMNAANLNIPPSDTRSLISRESLASTTLSLTESQSASSMKQEWSQGYRALPSLSNHGSQNGLDLGDLLSLPPGTSMSSNSVSNSLPSYLFGTESSHSPYPSPRHSSTRSHSARSKKRALSLSPLSDGIGIDFNTIIRTSPTSLVAYINGSRASPANLSPQPEVYGHFLGVRGSCIPQPRPVPGSQKGVLVAPGGLALPAYGEDGALEHERMQQLEHGGLQPGLVNHMVVQHGLPGPDSQSAGLFKTERLEEFPGSTVDLPPAPPLPPLPPPPGPPPPYHAHAHLHHPELGPHAQQLALPQATLDDDGEMDGIGGKHCCRWIDCSALYDQQEELVRHIEKVHIDQRKGEDFTCFWAGCPRRYKPFNARYKLLIHMRVHSGEKPNKCTFEGCEKAFSRLENLKIHLRSHTGEKPYLCQHPGCQKAFSNSSDRAKHQRTHLDTKPYACQIPGCTKRYTDPSSLRKHVKAHSSKEQQARKKLRSSTELHPDLLTDCLTVQSLQPATSPRDAAAEGTVGRSPGPGPDLYSAPIFSSNYSSRSGTAAGAVPPPHPVSHPSPGHNVQGSPHNPSSQLPPLTAVDAGAERFAPSAPSPHHISPRRVPAPSSILQRTQPPYTQQPSGSHLKSYQPETNSSFQPNGIHVHGFYGQLQKFCPPHYPDSQRIVPPVSSCSVVPSFEDCLVPTSMGQASFDVFHRAFSTHSGITVYDLPSSSSSLFGESLRSGAEDATFLQISTVDRCPSQLSSVYTEG
binding [5]: binds

B5: ATF1 (protein, UniProt P18846 1-271)
chain: MEDSHKSTTSETAPQPGSAVQGAHISHIAQQVSSLSESEESQDSSDSIGSSQKAHGILARRPSYRKILKDLSSEDTRGRKGDGENSGVSAAVTSMSVPTPIYQTSSGQYIAIAPNGALQLASPGTDGVQGLQTLTMTNSGSTQQGTTILQYAQTSDGQQILVPSNQVVVQTASGDMQTYQIRTTPSATSLPQTVVMTSPVTLTSQTTKTDDPQLKREIRLMKNREAARECRRKKKEYVKCLENRVAVLENQNKTLIEELKTLKDLYSNKSV
binding [8]: binds

B8: FOSL1 (protein, UniProt P15407 1-271)
chain: MFRDFGEPGPSSGNGGGYGGPAQPPAAAQAAQQKFHLVPSINTMSGSQELQWMVQPHFLGPSSYPRPLTYPQYSPPQPRPGVIRALGPPPGVRRRPCEQISPEEEERRRVRRERNKLAAAKCRNRRKELTDFLQAETDKLEDEKSGLQREIEELQKQKERLELVLEAHRPICKIPEGAKEGDTGSTSGTSSPPAPCRPVPCISLSPGPVLEPEALHTPTLMTTPSLTPFTPSLVFTYPSTPEPCASAHRKSSSSSGDPSSDPLGSPTLLAL
binding [4]: binds

B9: FOSL2 (protein, UniProt P15408 1-326)
chain: MYQDYPGNFDTSSRGSSGSPAHAESYSSGGGGQQKFRVDMPGSGSAFIPTINAITTSQDLQWMVQPTVITSMSNPYPRSHPYSPLPGLASVPGHMALPRPGVIKTIGTTVGRRRRDEQLSPEEEEKRRIRRERNKLAAAKCRNRRRELTEKLQAETEELEEEKSGLQKEIAELQKEKEKLEFMLVAHGPVCKISPEERRSPPAPGLQPMRSGGGSVGAVVVKQEPLEEDSPSSSSAGLDKAQRSVIKPISIAGGFYGEEPLHTPIVVTSTPAVTPGTSNLVFTYPSVLEQESPASPSESCSKAHRRSSSSGDQSSDSLNSPTLLAL
binding [4]: binds

Other lines, results leading:

binding [2]: binds
Molecule: ZBTB7B (from UniProt O15156 1-539)

binding [3]: binds
Molecule: HDAC1 (from UniProt Q13547 1-482)

binding [4]: binds
Molecule: c-JUN phosphorylated at S63 (from UniProt P05412 1-331)

binding [2]: binds
Molecule: ZBTB7A (from UniProt O95365 1-584)

binding [1]: binds
Molecule: PAGR1 (from UniProt Q9BTK6 1-254)

binding [1]: binds
Molecule: NCOA6 (from UniProt Q14686 1-2063)

binding [5]: binds
Molecule: microphthalmia-associated transcription factor (MITF) (from UniProt O75030 1-526)

binding [5]: binds
B3: GLIS1 (protein, UniProt Q8NBF1 1-620)
chain: MAEARTSLSAHCRGPLATGLHPDLDLPGRSLATPAPSCYLLGSEPSSGLGLQPETHLPEGSLKRCCVLGLPPTSPASSSPCASSDVTSIIRSSQTSLVTCVNGLRSPPLTGDLGGPSKRARPGPASTDSHEGSLQLEACRKASFLKQEPADEFSELFGPHQQGLPPPYPLSQLPPGPSLGGLGLGLAGRVVAGRQACRWVDCCAAYEQQEELVRHIEKSHIDQRKGEDFTCFWAGCVRRYKPFNARYKLLIHMRVHSGEKPNKCMFEGCSKAFSRLENLKIHLRSHTGEKPYLCQHPGCQKAFSNSSDRAKHQRTHLDTKPYACQIPGCSKRYTDPSSLRKHVKAHSAKEQQVRKKLHAGPDTEADVLTECLVLQQLHTSTQLAASDGKGGCGLGQELLPGVYPGSITPHNGLASGLLPPAHDVPSRHHPLDATTSSHHHLSPLPMAESTRDGLGPGLLSPIVSPLKGLGPPPLPPSSQSHSPGGQPFPTLPSKPSYPPFQSPPPPPLPSPQGYQGSFHSIQSCFPYGDCYRMAEPAAGGDGLVGETHGFNPLRPNGYHSLSTPLPATGYEALAEASCPTALPQQPSEDVVSSGPEDCGFFPNGAFDHCLGHIPSIYTDT

binding [8]: binds
B6: ATF3 (protein, UniProt P18847 1-181)
chain: MMLQHPGQVSASEVSASAIVPCLSPPGSLVFEDFANLTPFVKEELRFAIQNKHLCHRMSSALESVTVSDRPLGVSITKAEVAPEEDERKKRRRERNKIAAAKCRNKKKEKTECLQKESEKLESVNAELKAQIEELKNEKQHLIYMLNLHRPTCIVRAQNGRTPEDERNLFIQQIKEGTLQS

binding [8]: binds
B7: ATF7 (protein, UniProt P17544 1-483)
chain: MGDDRPFVCNAPGCGQRFTNEDHLAVHKHKHEMTLKFGPARTDSVIIADQTPTPTRFLKNCEEVGLFNELASSFEHEFKKAADEDEKKAAAGPLDMSLPSTPDIKIKEEEPVEVDSSPPDSPASSPCSPPLKEKEVTPKPVLISTPTPTIVRPGSLPLHLGYDPLHPTLPSPTSVITQAPPSNRQMGSPTGSLPLVMHLANGQTMPVLPGPPVQMPSVISLARPVSMVPNIPGIPGPPVNSSGSISPSGHPIPSEAKMRLKATLTHQVSSINGGCGMVVGTASTMVTARPEQSQILIQHPDAPSPAQPQVSPAQPTPSTGGRRRRTVDEDPDERRQRFLERNRAAASRCRQKRKLWVSSLEKKAEELTSQNIQLSNEVTLLRNEVAQLKQLLLAHKDCPVTALQKKTQGYLESPKESSEPTGSPAPVIQHSSATAPSNGLSVRSAAEAVATSVLTQMASQRTELSMPIQSHVIMTPQSQSAGR
